Values quoted from earlier work in patent US6949521B2, “Therapeutic azide compounds” (priority 1995, dated 2005).
Some of these results come from one statement about several compounds together.

Settings: in vivo; cited from earlier work

**Q.** Which oral bioavailability does the source give for CC(C)[C@H](N)C(=O)OCCOCn1cnc2c(=O)[nH]c(N)nc21 [valaclovir] here?
**A.** 15-20%
